Binding data for one substance are collected here from publication PMC10779018.

The assay addresses T1, Methyltransferase-like 21C (METTL21C), FLAG-tagged (chicken) (UniProt E1BSL9).
T1 sequence: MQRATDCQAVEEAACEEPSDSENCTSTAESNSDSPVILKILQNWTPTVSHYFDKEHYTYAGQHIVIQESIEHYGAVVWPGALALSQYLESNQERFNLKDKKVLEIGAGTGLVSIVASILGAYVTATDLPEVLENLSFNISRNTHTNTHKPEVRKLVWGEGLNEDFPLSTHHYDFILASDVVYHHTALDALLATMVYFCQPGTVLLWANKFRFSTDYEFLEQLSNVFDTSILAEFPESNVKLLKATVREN
The experiment in a line: co-IP; HEK293T cells co-transfected with pCD513B-FLAG-METTL21C and pCD513B-HA-PHAX or pCD513B-HA-PHAX (K381); precipitated by HA and by FLAG, detected by blot.

Results are given in words; binding and its absence hold for the method and conditions named. In cells and extracts the contact can be indirect. A result given as binding can be weak or reduced; the word gives no strength. Where a sequence is shown, tags or fusion partners need not be part of it.

Turning to “Phosphorylated adapter RNA export protein (PHAX), HA-tagged”, the binding entry is given as “binds”.
